PubChem BioAssay AID1347423 (Functional Genomics Laboratory (NCATS/FGL), 2020)
About 210 (0.4%) of roughly 52,000 sequences were called active.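 The calls were made as follows: active = gene whose silencing raises cell survival under the drug, median off-target-corrected z-score across its silencing RNAs 2 or more; inactive = the rest.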 The list shows a part of the results.

test: Resistance to Poly (ADP-Ribose) Polymerase inhibitor: Gene Identification via Genome-wide siRNA Screen; conditions: mouse BRCA2 R2336H ES cells, olaparib, CellTiter-Glo viability; active compounds read high
Method in brief: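 Mouse BRCA2 R2336H ES cells were reverse-transfected with siRNA (20 nM final), treated at 48 h with 500 nM olaparib, and read by CellTiter-Glo after 72 h. Scores: MAD-based z per siRNA, median per gene, seed off-target correction.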

Row | Sequence | z-score
1 | GGAAAGGAUAUUAUUGUUCTT against Olfr907 | inactive: 0.474
2 | CCGAAAGAACACAAUCUAUTT against Ifi16 | inactive: -0.1
3 | GGCUAUGAUGACUUCAACUTT against Gnb3 | inactive: 1.38
4 | GUUUUGUUUUUCCUCCAGUTT against Bcl9l | inactive: 0.044
5 | CCAUAAAUCAGCUAAAGCATT against Eea1 | inactive: -0.74
6 | GGGCAAUUCUAUCAAAGAGTT against Gps1 | inactive: -1.54
7 | GCUGUGUUCAUCCAAAUACTT against Orc5l | inactive: -0.819
8 | GACGGUACAUCUGCUCAUCTT against Galr3 | inactive: 0.874
9 | GGAAUAAAAGACCUUGGAUTT against Slc39a7 | inactive: -1.5
10 | GGUUCUGCUCCAACCUUUGTT against Gtf2b | inactive: -2.86
11 | CGAUGGUAGAAUUCUUAGATT against Akap9 | inactive: 0.433
12 | GCGGAAUUUGAUCACAUCCTT against C330005M16Rik | inactive: 0.612
13 | CCUACACAUAUGAAGGAGUTT against Fabp2 | inactive: 0.284
14 | GGAAGCGAACGAGACACUUTT against Pla2g4a | inactive: 0.943
15 | GGAUGUAAUCCACUUCAAGTT against Acox3 | inactive: 1.68
16 | GGGACCCAAGGAUAUGAAUTT against Zfyve20 | inactive: 0.725
17 | GGAUCUUUGGAGAAAGAGATT against Kcnc3 | inactive: 0.346
18 | GGAUGUCUUACCAUGGGAATT against A830053O21Rik | inactive: -0.789
19 | GCCGAAGCCCUAUUUAUUATT against Artn | inactive: -0.365
20 | GGAGACCAAAUAGCAUUUUTT against Olfr504 | inactive: -0.822
21 | GCCCUGGAUCAUUGAGUGATT against Atp2b1 | inactive: -0.326
22 | CGAGAAAUAUAUGAAUGUCTT against Eltd1 | inactive: -2.1

Laid out differently: results already given.
GACGGUACAUCUGCUCAUCTT against Galr3
  z-score: inactive: 0.874
GGAAGCGAACGAGACACUUTT against Pla2g4a
  z-score: inactive: 0.943

Later entries.

Row | Sequence | z-score
23 | GGAGGUCCAAGAGAAAUGUTT against 4933428I03Rik | inactive: 1.97
24 | GGAAAAUUCUGAGUUAAAGTT against 4932414K18Rik | inactive: 0.105
25 | GCCCUAUACCUUAUUUAAUTT against Ros1 | inactive: 0.113
26 | GGAGUCAGUACUUCAAGAUTT against Zfp148 | inactive: 0.731
27 | CCCUACACGCAGGAGUUUUTT against Gtf3c1 | inactive: 0.626
28 | GCUUGUCUACAAAUACUCUTT against Zcwcc1 | inactive: -0.588
29 | GGAUGUCUAUAGUGAGAUUTT against Psg16 | inactive: -0.802
30 | GGAGAGACUGACAAAAACCTT against Mrvi1 | inactive: -0.257
31 | GCAAGACUCUACACAUCACTT against Nox4 | inactive: 0.804
32 | GGUACCUGUUAAAUGUUACTT against 2700007P21Rik | inactive: 0.472
33 | GCCUAUAUGGAACACUGGGTT against Mrps6 | inactive: 0.532
34 | GGGAUUUCUGGUUUACUUCTT against BC024322 | inactive: 0.441
35 | GGAAGAUAACAUCAACAAATT against Arl6ip5 | inactive: 1.59
36 | CGGACUCACAGAGCUAAGATT against Tnp2 | inactive: -0.465
37 | GGAGACUUACGAACUUCGUTT against 3110001N18Rik | inactive: -0.36
38 | GCUUGAAUUGUGUAGUAAUTT against 6030413G23Rik | inactive: -0.557
39 | GGCCGAAUUGUGUCUUGGUTT against Dnmt3a | inactive: -1.9
40 | GGAGACUGAGACUUUAGAGTT against Gadd45b | inactive: 0.727
41 | GGGUCUGGUUCUGUAACCATT against Pou4f3 | inactive: -0.226
42 | GGAAAAUACAUUGAUGAGCTT against Xrcc4 | inactive: 0.301
43 | GGUGAAAAGAUCAGAAUACTT against 1110025H10Rik | inactive: 0.62
44 | CCAGAGGUCACGAUUACUUTT against Pcdha12 | inactive: -1.15

Row | Sequence | z-score
45 | CCUGUUUCACAGCUUCUAUTT against BC002216 | inactive: 0.582
46 | GGUAGACACACACAUUCAUTT against Ampd3 | inactive: -0.454
47 | GGACCAUUCUUGCGUUCGUTT against Cacng7 | inactive: -0.244
48 | GGCCGCACCAUGUAUGUCATT against Pck1 | inactive: -1.54
49 | GCAGGAUCCUUAAUUUGGCTT against Rnh2 | inactive: 1.65
50 | GCAAGAGGUCUGAAGUAUGTT against D130016K21Rik | inactive: -0.882
51 | GGCAGACCAUGAAUGCUGUTT against Kcna2 | inactive: -0.87
52 | GGCUGUAAAAAUUAGUAUGTT against A630001G21Rik | inactive: -0.305
53 | CCAUAUGAAAUCCCUGCAUTT against Irs3 | inactive: -2.01
54 | GCUAUUGUAGAGAGCUGAATT against C330023F11Rik | inactive: -3.34
55 | GGUUGGCGAGACUUCUACGTT against 4921523A10Rik | inactive: 0.206
56 | GGAAAUCAACAUGUUAAAGTT against Map4k6 | inactive: 0.968
57 | GCUAUUAAAGAGCCCACAATT against Sh3glb2 | inactive: 0.56
58 | GCAGAUAGAAGACUGGAAUTT against 1700024G13Rik | inactive: 0.527
59 | GGUGAAGGCCUAUGAGAAGTT against Nosip | inactive: -2.97
60 | GGCCUGGAAUAGAUUUGUGTT against 2210016L21Rik | inactive: 0.581
61 | CGCGCCUGAAAAUGUUGAATT against BC027088 | inactive: 0.934
62 | GGAGAGCAGUAUGAGAUCUTT against Galnt10 | inactive: -0.0698
63 | CCACAACAUUUGCUAAUAATT against Cysltr2 | inactive: 0.387
64 | GGUAAUUAACAUGAAGUGUTT against Traf4 | inactive: 0.499
65 | GCAAAUCACACAUUCUCUGTT against Stk32b | inactive: 0.853
66 | GCUACUGAACGAGAAUGCCTT against BC036563 | inactive: 0.797
